From article PMC7862700
The entries are a selection whose mix differs from that of the whole data set. For some of these results: At the low end of the ranking the order means little. This is one part of the list. For some of these results: The source does not settle which construct or isoform was used.

How the values were obtained:
Experiment in all cases: DAPPL (digital affinity profiling via proximity ligation, sequencing)
Conditions in all cases: 10 mM Tris-HCl pH 7.5, 50 mM NaCl, 1 mM DTT, 4% glycerol, room temperature, 30 min; GST-TFs on glutathione beads, 16-mer random dsDNA library, 0.1% …; high values mean tight binding; double strand, one strand shown; scale: fold enrichment (6-mer frequency, TF over GST control)
GABPA = biological target: T1, GABPA (UniProt Q06546)
T1 sequence: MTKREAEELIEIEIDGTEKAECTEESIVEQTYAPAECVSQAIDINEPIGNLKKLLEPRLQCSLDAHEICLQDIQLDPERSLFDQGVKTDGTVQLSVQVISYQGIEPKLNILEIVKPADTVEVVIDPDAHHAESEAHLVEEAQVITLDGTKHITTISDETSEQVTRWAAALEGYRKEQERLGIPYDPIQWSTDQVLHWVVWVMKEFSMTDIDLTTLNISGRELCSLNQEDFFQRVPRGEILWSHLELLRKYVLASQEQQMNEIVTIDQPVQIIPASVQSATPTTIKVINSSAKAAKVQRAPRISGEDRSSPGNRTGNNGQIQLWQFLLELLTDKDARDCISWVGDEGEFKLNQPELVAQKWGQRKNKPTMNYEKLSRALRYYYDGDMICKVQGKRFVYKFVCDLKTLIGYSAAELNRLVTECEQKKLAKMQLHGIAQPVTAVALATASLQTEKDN

ETS1 = biological target: T2, ETS1 (UniProt P14921)
T2 sequence: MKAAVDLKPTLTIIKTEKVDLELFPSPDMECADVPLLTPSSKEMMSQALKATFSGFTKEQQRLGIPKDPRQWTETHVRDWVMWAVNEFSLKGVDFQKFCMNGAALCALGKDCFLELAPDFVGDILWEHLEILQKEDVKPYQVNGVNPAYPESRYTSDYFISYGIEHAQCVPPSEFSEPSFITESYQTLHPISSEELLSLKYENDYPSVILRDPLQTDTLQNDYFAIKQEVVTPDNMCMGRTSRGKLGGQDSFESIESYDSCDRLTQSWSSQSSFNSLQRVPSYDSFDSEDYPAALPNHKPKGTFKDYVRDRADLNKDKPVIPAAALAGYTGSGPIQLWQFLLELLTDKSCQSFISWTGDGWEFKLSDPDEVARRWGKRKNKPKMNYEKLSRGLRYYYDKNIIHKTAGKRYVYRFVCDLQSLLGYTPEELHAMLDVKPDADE

SPDEF = biological target: T3, SPDEF (UniProt O95238)
T3 sequence: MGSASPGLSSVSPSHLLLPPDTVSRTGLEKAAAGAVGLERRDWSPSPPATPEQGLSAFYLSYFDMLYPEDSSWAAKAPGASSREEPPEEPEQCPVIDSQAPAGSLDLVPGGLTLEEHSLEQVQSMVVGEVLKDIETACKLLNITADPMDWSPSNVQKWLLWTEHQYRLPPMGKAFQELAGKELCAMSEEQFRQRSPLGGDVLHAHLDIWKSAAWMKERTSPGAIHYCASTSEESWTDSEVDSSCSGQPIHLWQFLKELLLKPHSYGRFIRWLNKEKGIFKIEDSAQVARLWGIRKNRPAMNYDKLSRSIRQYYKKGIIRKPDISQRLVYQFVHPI

Sequence	binding signal (GABPA)	binding signal (ETS1)	binding signal (SPDEF)
TGGGCC	0.915	0.991	0.89
AGGGCA	0.839	0.86	0.83
GTCGTA	0.671	0.626	0.606
AAGGGG	0.98	0.963	0.804
CAGGCT	0.746	0.849	0.72
CGGTGA	0.502	0.452	0.456
GGCCAA	0.9	0.855	0.788
GGCGTA	0.663	0.657	0.643
CAGCAA	0.987	0.93	0.873
CAGAGA	0.619	0.587	0.609
GCGCCA	0.74	0.792	0.716
AAAGTG	0.916	0.836	0.937
GGAACC	0.787	0.8	0.939
AGTGAA	0.909	0.927	0.827
GACGGG	0.407	0.462	0.452
AGCCGA	0.94	0.866	0.752

Sequence	binding signal (GABPA)	binding signal (ETS1)	binding signal (SPDEF)
GCAACG		0.985	0.933
CGTAGA	0.71	0.725	0.762
AGGTTA	0.76	0.787	0.773
AGTAGG	0.603	0.646	0.564
GTCTGC		0.963	0.857
GGAGAG	0.268	0.271	0.26
GGCGCG	0.72	0.587	0.651
TAGAGC	0.799	0.74	0.845
GACACC	0.861	0.814	0.897
TCGCCA		0.965	0.982
GACAAA	0.964	0.961	0.922
AGGACT		0.912	0.893
GTCGCA	0.802	0.726	0.714
GGGGTT	0.789	0.801	0.798
CGGTCC	0.867	0.983	1.04
AGGCCT		0.92	0.861

As a working copy, some entries already given:
Sequence	binding signal (GABPA)	binding signal (ETS1)	binding signal (SPDEF)
AAAGTG	0.916	0.836	0.937
GGAACC	0.787	0.8	0.939
AGTGAA	0.909	0.927	0.827
GACGGG	0.407	0.462	0.452
AGCCGA	0.94	0.866	0.752
